{"source": "patent US5770593A", "about": "“Method of determining a pharmaceutical combination preparations for use in anti-neoplastic therapy” (Boehringer Mannheim GmbH, priority 1988, dated 1998)", "key": {"protein kinase C": {"target": "protein kinase C", "experiment": "Inhibition of protein kinase C (PK-C): in vitro method, 32P incorporation into H1 histone", "assay_type": "biochemical, rat", "experimental": "b) Inhibition of protein kinase C (PK-C): in vitro method.\nHowever, to the extracts was additionally added 1 mM phenylmethanesulphonyl chloride, 20 μg./ml. leupeptin and 2 μg./ml. aprotinin. […] 1,2-s,n-diolein. The reaction time was 10 minutes at 32° C. The enzyme reaction was stopped by the addition of 1 ml. 20% trichloroacetic acid (w/v). The protein was precipitated out on Whatman GF/F filter paper and counted with the help of a liquid scintillation counter.\nQuercetin was solubilised in dimethyl sulphoxide (DMSO). For the batch mixing, the solution in DMSO was made up to a DMSO end concentration of 1%. An equivalent amount of pure DMSO was added to the control groups. The influence of quercetin on the cell multiplication was investigated by the addition of the active material in DMSO to the culture medium up to an end concentration of 0.1%. The cells were cultured in the presence of the active material for 48 hours. The control group only received pure DMSO."}, "Walker carcinoma cells": {"test_system": "Walker carcinoma cells", "experiment": "Inhibition of multiplication of Walker cells (cell proliferation), single active material or combination, Chou and Talalay analysis", "assay_type": "cell-based", "settings": "Rattus norvegicus"}}, "note": "Where two headings read alike, the source gives them in different places.", "data": [{"smiles": "CC/C(=C(\\c1ccccc1)c1ccc(OCCN(C)C)cc1)c1ccccc1", "note": "[tamoxifen]", "values": [{"measurement": "IC50", "setting": "protein kinase C; Table 1, 50% inhibition of the protein kinase C, read-out: inhibition of the protein kinase C IC50", "result": 11.2, "unit": "µM"}, {"measurement": "IC50", "setting": "protein kinase C; protein kinase C enriched from Walker cells, 10 minutes at 32° C., pH 7.4, read-out: IC50, inhibition of protein kinase C (Examples 2-6)", "result": 11.2, "unit": "µM"}, {"measurement": "IC50", "setting": "Walker carcinoma cells; 48 h, read-out: IC50 cell proliferation in combination with cis-DDP", "result": 2.24, "unit": "µM"}, {"measurement": "IC50", "setting": "Walker carcinoma cells; Table 1, single active material, 48 hours, read-out: IC50 cell proliferation", "result": 12.4, "unit": "µM"}]}]}
